Earlier results as cited in patent US10662451B2, “Microorganisms and methods for the coproduction 1,4-butanediol and gamma-butyrolactone” (priority 2009, dated 2020).
At least one structure is not confirmed: it was looked up by name or label, or the drawing left a doubt.

Test system: aminotransferase from Leishmania mexicana
Conditions: activity considered 100% on tyrosine; cited from earlier work

In the case of `N[C@@H](CC(=O)O)C(=O)O` [aspartate], the aminotransferase activity is listed as 30%.
